The other results are listed elsewhere or left out. These are further read-outs of the screen, such as a control signal, another cell line or another target. No call is given for them. The list favours compounds with an active or inconclusive main result. Potencies come from curve fits of mixed quality, noted in brackets.
Experiment: qHTS Assay to Find Inhibitors of Chronic Active B-Cell Receptor Signaling
Conditions: ABC-DLBCL IkBa-CBG/CBR reporter, luminescence ratio (green luciferase fused to IkBa over red control in TMD8 lymphoma cells), 4 h
Outline: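 Cell line TMD8 (human ABC DLBCL), stably expressing tet-inducible CBG68-IkBa fusion and CBR; IMDM/0.5% FBS; cpd up to 46 uM; dox induction, 4 h, 37C/5% CO2; dual luminescence; green/red ratio; MG132 control.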

[1] = measured here: CBR red luminescence, cell number
[2] = measured here: IkBa-CBG green luminescence

Row | SMILES | AC50 [1] | AC50 [2]
1 | CC(C)c1cc(=O)n2c(nc3ccccc32)[nH]1 | 6.31 µM [falling, partial curve] | –
2 | Cc1ccc(-c2nc(CS(=O)CC(=O)NCc3ccccn3)c(C)o2)cc1 (stereo not given) | 6.51 µM [falling, single point] | –
3 | CN(C)S(=O)(=O)c1cccc(NC(=O)COC(=O)c2cccn2C)c1 | 11.2 µM [falling, partial curve] | –
4 | O=C(OCC(=O)N1CCCCC1)c1cccs1 | 29.1 µM [rising, single point] | –
5 | CC(=O)c1cccc(NC(=S)NC(=O)c2ccccc2C)c1 | 1.12 µM [falling, full curve] | –
6 | O=C(CSc1cccc[n+]1[O-])c1ccc(Cl)s1 | 5.01 µM [falling, full curve] | 2 µM [falling, full curve]
7 | Cc1ccc(C(=O)NCC(=O)NCC(=O)OCC(=O)c2ccc(Br)cc2)cc1 | 29.1 µM [rising, single point] | –
8 | COc1ccc(/C=C2\SC(=S)N(CCC(=O)Nc3cccc(O)c3)C2=O)cc1OC | 14.1 µM [falling, single point] | –
9 | CCc1nc2oc3cc(OC)ccc3c(=O)c2c(=O)n1-c1ccccc1 | 0.366 µM [falling, full curve] | –
10 | CCOc1ccc(/C=N/n2c(SC)nnc(C(C)(C)C)c2=O)cc1 | 6.31 µM [falling, single point] | –
11 | Cc1ccc(NC(=O)COc2ccccc2C=O)cc1Cl | 31.6 µM [falling, single point] | –
12 | NNC(=O)c1cc(Br)cs1 | 8.2 µM [falling, partial curve] | –
13 | O=C(CSc1nnc(CN2CCOCC2)n1-c1ccccc1)Nc1ccc(Cl)cc1 | 18.4 µM [falling, partial curve, poor fit] | –
14 | CC1CCCCN1CC(=O)Nc1ccccc1Sc1ccccc1 (stereo not given) | 29.1 µM [rising, single point] | –
15 | Cc1ccc(N=C2SC(C(=O)Nc3ccc(OC(F)(F)F)cc3)C(N)=C2C(=O)Nc2c(C)cc(C)cc2C)cc1 (stereo not given) | 20.6 µM [falling, single point] | –
16 | COc1cc(OC)cc(C(=O)NCc2ccc3c(c2)CCN3C(=O)c2ccccc2)c1 | 35.5 µM [rising, single point] | 11.2 µM [falling, partial curve]
17 | CCn1c(SCC(=O)O)nc2sc3c(c2c1=O)CCC3 | 25.9 µM [falling, partial curve, poor fit] | –
18 | O=C(O)CCCC(=O)Nc1ccc(N=Nc2ccccc2)cc1 | 14.1 µM [falling, partial curve, poor fit] | –
19 | Cc1oc2c(c(C)cc3oc(=O)c(CC(=O)N[C@@H](CC(C)C)C(=O)O)c(C)c32)c1C | 5.01 µM [falling, full curve, poor fit] | –
20 | COC(=O)c1cnc(SCC(=O)c2ccccc2)n1C | 35.5 µM [falling, single point] | –
21 | CCCCn1nc2cc(C(=O)NCCc3cccs3)ccc2c1OCC | 1.46 µM [rising, full curve] | –

Quoted from the listing.
Entry for COc1ccc(/C=C2\SC(=S)N(CCC(=O)Nc3cccc(O)c3)C2=O)cc1OC under AC50 [1]: 14.1 µM [falling, single point]
Entry for Cc1oc2c(c(C)cc3oc(=O)c(CC(=O)N[C@@H](CC(C)C)C(=O)O)c(C)c32)c1C under AC50 [1]: 5.01 µM [falling, full curve, poor fit]

Continuation.

Row | SMILES | AC50 [1] | AC50 [2]
22 | CCN(CC)S(=O)(=O)c1ccc(C(=O)NCc2n[nH]c(=S)n2-c2ccccc2OC)cc1 | 2.51 µM [falling, full curve] | –
23 | CN(C)S(=O)(=O)c1ccc(NC(=O)CN2CCCc3ccccc32)cc1 | 14.1 µM [rising, single point] | –
24 | COc1ccc(C(=O)c2nc3c(n2O)CCCCC3)cc1 | 6.51 µM [falling, partial curve] | –
25 | CCc1[nH]nc2c1C1(CCN(C(=O)OCc3ccccc3)CC1)C(C#N)=C(N)O2 | 2.59 µM [falling, partial curve, poor fit] | –
26 | Cc1cc(C(=O)N/N=C/c2ccc[nH]2)no1 | 13 µM [falling, single point] | –
27 | Cc1ccccc1C(=O)NC(=S)N(C)CCc1ccccn1 | 22.4 µM [falling, partial curve, poor fit] | –
28 | COc1cccc(CNC(=O)c2n[nH]c3ccccc23)c1 | 17.8 µM [falling, partial curve, poor fit] | –
29 | O=C(N/N=C/c1c[nH]c2ccccc12)c1cc(-c2ccc3ccccc3c2)n[nH]1 | 8.2 µM [rising, partial curve, poor fit] | –
30 | O=C1CC2(CCN(C(=O)c3c(F)cccc3Cl)CC2)Oc2ccccc21 | 5.8 µM [falling, partial curve, poor fit] | –
31 | CC(C)CN(C(=O)c1ccc(S(=O)(=O)N2CCCC2)cc1)C1CCS(=O)(=O)C1 (stereo not given) | 20.6 µM [rising, partial curve] | –
32 | O=C(CSc1ccccn1)c1ccc2c(c1)OCO2 | 0.92 µM [rising, full curve, poor fit] | –
33 | CN=c1scc(-c2cccs2)n1/N=C/c1ccccc1O | 3.26 µM [falling, full curve] | 5.17 µM [falling, partial curve, poor fit]
34 | Cc1cccc(OCCCC(=O)NNC(=O)c2ccc(F)cc2)c1 | 4.11 µM [falling, single point] | –
35 | CC1CCC(C(C)C)C2=C1C(C#N)(C#N)C(C#N)(C#N)C(c1ccccc1)N2 (stereo not given) | 12.6 µM [falling, single point] | –
36 | COc1cccc(-c2cc(C(=O)Nc3cccnc3)no2)c1 | 6.51 µM [falling, partial curve] | –
37 | O=C(Cn1ncc(Cl)c(Cl)c1=O)N1CCN(Cc2ccccc2)CC1 | 8.91 µM [falling, partial curve, poor fit] | –
38 | COC(=O)C1=C(C)N(Cc2ccccc2)C(=S)N[C@H]1c1cccc(C(F)(F)F)c1 | 4.47 µM [falling, full curve] | 35.5 µM [rising, partial curve, poor fit]
39 | CC(=O)n1nc(-c2ccccc2)nc1NCc1ccc(N(C)C)cc1 | 28.2 µM [rising, single point] | –
40 | O=C(Nc1ccc(Cl)cc1Cl)c1csc(-c2cccnc2)n1 | 15.8 µM [rising, partial curve] | –
41 | Cc1cccc(C)c1-n1c(C)cc(/C=N\Nc2ccc([N+](=O)[O-])cn2)c1C | 0.146 µM [rising, full curve, poor fit] | –

From PubChem BioAssay AID493014 (National Center for Advancing Translational Sciences (NCATS), 2011)
